From PMC3362553
Results are given in words; binding and its absence hold for the method and conditions named. Binding seen in cells or lysates may run through a third protein. Some entries that bind do so weakly or less than the wild type.

The chains behind the UniProt entries cited, without tags or fusion partners.
UniProt P23804: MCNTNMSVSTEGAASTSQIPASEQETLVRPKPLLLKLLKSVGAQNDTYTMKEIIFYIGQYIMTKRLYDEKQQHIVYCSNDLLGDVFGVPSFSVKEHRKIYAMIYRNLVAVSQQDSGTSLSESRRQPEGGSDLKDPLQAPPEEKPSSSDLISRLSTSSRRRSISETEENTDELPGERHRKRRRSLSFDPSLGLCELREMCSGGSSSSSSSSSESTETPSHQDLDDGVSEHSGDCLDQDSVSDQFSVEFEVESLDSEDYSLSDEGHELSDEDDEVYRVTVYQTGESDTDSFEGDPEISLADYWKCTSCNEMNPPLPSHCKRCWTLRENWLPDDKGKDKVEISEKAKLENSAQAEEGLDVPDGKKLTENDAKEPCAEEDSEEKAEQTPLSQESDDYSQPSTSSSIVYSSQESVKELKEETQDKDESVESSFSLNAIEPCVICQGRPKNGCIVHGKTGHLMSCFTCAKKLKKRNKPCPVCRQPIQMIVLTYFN

Target: Mdm2 (murine double minute 2), wild type (mouse (endogenous in MEFs)) (UniProt P23804)
Assay: co-IP; Mdm2^+/+;p53^ER/- and Mdm2^m/m;p53^ER/- MEF cells 24 h after 4-OHT, 0.1% NP-40 lysis buffer, immunoprecipitation for Mdm2, western blotting

binding: binds
B1: Mdmx (protein, UniProt O35618 1-489)
chain: MTSHSTSAQCSASDSACRISSEQISQVRPKLQLLKILHAAGAQGEVFTMKEVMHYLGQYIMVKQLYDQQEQHMVYCGGDLLGDLLGCQSFSVKDPSPLYDMLRKNLVTSASINTDAAQTLALAQDHTMDFPSQDRLKHGATEYSNPRKRTEEEDTHTLPTSRHKCRDSRADEDLIEHLSQDETSRLDLDFEEWDVAGLPWWFLGNLRNNCIPKSNGSTDLQTNQDIGTAIVSDTTDDLWFLNETVSEQLGVGIKVEAANSEQTSEVGKTSNKKTVEVGKDDDLEDSRSLSDDTDVELTSEDEWQCTECKKFNSPSKRYCFRCWALRKDWYSDCSKLTHSLSTSNITAIPEKKDNEGIDVPDCRRTISAPVVRPKDGYLKEEKPRFDPCNSVGFLDLAHSSESQEIISSAREQTDIFSEQKAETESMEDFQNVLKPCSLCEKRPRDGNIIHGKTSHLTTCFHCARRLKKSGASCPACKKEIQLVIKVFIA
